Source: PMC6203814
These are yes or no findings as the source states them, for the method shown. In cells and extracts the contact can be indirect. Some binding calls cover weakened binding; strength is not graded here. Where a sequence is shown, tags or fusion partners need not be part of it.

Sequences of proteins named here, by UniProt entry; tags and fusion partners are left off. Residues count along the entry.
UniProt Q8WWQ8, residues 20-2551: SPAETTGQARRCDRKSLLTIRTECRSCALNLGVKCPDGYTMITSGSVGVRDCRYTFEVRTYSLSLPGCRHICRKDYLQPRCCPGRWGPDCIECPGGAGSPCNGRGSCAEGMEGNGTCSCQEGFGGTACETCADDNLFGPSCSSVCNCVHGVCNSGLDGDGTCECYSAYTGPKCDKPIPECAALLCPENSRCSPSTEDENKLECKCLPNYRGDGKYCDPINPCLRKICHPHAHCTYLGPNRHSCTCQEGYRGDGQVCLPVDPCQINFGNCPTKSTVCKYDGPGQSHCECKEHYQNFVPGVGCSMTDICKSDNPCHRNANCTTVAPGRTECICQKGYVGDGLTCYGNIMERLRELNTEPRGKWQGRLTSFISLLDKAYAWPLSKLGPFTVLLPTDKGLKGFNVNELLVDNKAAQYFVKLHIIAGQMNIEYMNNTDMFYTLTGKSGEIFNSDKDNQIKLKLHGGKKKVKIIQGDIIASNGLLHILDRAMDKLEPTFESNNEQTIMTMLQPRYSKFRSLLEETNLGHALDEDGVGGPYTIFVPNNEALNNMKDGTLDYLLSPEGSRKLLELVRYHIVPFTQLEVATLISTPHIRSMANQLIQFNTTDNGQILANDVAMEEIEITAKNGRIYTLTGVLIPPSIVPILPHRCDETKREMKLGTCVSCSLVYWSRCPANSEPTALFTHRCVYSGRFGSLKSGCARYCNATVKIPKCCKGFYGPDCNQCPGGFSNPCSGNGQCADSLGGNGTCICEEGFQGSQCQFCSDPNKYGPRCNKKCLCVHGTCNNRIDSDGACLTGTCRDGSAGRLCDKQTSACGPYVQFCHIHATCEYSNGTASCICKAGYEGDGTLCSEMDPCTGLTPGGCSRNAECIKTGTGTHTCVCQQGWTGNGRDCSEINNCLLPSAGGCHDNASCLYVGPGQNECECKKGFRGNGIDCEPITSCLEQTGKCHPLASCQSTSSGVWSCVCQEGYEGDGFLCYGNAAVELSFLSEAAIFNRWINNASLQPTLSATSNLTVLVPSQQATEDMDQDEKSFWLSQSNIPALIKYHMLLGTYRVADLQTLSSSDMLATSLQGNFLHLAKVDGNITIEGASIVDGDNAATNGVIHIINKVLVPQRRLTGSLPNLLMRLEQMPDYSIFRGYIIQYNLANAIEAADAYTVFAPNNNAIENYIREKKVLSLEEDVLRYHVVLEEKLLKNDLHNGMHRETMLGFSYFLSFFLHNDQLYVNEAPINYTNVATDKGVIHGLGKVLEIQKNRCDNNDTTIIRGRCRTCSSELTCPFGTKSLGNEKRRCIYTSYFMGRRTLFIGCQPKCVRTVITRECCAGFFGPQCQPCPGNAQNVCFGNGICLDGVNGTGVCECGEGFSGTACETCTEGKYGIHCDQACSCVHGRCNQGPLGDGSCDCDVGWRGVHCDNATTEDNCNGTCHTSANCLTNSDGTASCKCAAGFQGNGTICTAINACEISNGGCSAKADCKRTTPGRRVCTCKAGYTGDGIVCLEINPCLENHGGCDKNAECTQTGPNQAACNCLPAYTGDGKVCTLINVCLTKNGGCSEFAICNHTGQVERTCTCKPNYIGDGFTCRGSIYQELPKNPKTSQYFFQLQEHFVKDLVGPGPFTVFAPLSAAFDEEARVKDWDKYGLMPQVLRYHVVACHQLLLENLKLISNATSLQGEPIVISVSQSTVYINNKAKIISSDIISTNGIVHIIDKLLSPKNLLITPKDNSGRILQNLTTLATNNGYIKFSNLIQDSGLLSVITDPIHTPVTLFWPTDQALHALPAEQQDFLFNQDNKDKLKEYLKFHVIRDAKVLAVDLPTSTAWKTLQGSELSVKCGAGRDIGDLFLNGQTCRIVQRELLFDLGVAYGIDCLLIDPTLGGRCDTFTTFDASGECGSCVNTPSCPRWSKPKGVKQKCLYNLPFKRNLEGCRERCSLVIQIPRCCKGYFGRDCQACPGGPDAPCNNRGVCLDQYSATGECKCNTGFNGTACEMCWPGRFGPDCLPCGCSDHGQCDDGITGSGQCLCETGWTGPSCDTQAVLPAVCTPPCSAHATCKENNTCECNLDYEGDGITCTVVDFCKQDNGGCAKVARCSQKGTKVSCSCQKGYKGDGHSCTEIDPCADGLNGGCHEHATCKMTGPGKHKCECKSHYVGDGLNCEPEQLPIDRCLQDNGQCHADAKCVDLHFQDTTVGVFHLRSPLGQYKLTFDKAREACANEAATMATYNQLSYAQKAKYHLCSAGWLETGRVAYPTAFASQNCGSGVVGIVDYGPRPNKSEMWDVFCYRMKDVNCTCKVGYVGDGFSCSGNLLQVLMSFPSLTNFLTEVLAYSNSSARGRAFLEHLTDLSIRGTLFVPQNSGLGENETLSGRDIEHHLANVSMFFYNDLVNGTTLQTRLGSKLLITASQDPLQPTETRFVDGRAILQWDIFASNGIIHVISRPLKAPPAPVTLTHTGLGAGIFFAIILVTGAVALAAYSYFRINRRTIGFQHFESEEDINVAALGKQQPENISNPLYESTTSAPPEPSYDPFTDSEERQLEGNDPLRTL
UniProt Q8R4U0, residues 29-2559: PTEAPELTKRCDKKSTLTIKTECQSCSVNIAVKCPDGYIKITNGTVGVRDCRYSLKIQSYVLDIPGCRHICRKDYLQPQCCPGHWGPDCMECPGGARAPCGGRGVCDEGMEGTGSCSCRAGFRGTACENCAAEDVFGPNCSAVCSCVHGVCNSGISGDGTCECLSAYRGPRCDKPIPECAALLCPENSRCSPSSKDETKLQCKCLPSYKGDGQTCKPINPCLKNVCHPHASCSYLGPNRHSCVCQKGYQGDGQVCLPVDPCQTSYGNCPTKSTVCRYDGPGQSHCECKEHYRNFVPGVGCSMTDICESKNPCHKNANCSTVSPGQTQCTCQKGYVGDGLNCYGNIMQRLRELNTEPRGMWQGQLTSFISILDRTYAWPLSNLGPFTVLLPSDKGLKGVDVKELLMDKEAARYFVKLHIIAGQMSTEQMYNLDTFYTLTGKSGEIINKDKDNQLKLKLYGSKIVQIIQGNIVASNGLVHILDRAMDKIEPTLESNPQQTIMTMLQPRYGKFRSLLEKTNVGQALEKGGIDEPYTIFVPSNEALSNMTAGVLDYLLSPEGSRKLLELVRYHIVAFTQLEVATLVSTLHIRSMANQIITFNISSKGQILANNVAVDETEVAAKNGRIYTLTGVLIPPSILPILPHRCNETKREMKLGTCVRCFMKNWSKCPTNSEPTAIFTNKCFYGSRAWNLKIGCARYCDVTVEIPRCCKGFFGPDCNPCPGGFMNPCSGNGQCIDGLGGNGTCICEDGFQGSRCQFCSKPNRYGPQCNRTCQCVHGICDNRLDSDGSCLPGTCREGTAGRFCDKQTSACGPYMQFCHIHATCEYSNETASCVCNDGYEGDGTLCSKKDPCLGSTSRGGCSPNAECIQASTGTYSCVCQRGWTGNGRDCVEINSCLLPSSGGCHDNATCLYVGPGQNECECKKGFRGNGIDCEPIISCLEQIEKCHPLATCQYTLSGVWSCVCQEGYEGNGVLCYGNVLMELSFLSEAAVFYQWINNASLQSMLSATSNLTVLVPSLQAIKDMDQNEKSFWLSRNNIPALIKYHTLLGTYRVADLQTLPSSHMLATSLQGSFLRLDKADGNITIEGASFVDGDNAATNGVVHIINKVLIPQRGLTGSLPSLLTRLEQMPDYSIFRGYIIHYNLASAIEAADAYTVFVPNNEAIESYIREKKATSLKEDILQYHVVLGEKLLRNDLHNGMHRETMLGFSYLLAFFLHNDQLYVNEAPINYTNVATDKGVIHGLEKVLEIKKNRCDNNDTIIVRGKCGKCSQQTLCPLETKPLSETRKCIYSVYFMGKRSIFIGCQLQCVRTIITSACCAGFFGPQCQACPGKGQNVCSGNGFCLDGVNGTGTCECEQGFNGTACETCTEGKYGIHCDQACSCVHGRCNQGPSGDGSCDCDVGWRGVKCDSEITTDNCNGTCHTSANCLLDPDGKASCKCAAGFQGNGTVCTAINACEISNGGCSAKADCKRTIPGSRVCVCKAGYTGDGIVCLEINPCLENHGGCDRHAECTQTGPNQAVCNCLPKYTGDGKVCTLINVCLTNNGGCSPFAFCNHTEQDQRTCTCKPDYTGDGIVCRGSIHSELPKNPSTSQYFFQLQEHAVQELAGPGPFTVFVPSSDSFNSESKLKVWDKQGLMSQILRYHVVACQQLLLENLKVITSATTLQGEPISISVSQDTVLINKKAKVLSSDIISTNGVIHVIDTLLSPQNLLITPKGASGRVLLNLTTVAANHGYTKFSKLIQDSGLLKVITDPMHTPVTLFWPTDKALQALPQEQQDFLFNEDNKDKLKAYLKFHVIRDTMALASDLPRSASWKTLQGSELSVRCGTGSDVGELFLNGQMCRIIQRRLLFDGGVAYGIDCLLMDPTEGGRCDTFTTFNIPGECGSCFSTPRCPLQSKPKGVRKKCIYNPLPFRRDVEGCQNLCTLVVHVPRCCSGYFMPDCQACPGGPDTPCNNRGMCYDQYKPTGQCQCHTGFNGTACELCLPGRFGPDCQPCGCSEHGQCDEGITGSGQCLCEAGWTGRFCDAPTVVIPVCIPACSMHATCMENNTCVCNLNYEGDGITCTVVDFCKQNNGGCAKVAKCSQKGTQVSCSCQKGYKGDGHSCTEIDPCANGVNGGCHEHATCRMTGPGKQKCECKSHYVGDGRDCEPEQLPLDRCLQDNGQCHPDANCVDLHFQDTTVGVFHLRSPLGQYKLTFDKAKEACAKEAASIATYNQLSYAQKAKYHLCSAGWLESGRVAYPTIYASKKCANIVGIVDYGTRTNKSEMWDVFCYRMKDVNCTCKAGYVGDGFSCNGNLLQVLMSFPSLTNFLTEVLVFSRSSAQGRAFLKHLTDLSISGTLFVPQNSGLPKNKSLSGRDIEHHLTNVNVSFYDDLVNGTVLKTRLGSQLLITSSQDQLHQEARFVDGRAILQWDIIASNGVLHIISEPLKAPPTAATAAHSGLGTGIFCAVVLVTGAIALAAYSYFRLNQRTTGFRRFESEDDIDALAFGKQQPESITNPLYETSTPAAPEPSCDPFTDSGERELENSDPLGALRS

Key:
[1] = biological target: T1, Full length human Flag-BAI3-mVenus (human) (UniProt O60242); assay: co-IP; HEK293T or C2C12 cells expressing V5-Stabilin-2 and a Flag-BAI3 form, lysed in 150 mM NaCl, 50 mM Tris pH 7.5, 1% Nonidet-P40; 500 μg extract, antibody and Protein-A agarose 90 min, three washes
T1 sequence: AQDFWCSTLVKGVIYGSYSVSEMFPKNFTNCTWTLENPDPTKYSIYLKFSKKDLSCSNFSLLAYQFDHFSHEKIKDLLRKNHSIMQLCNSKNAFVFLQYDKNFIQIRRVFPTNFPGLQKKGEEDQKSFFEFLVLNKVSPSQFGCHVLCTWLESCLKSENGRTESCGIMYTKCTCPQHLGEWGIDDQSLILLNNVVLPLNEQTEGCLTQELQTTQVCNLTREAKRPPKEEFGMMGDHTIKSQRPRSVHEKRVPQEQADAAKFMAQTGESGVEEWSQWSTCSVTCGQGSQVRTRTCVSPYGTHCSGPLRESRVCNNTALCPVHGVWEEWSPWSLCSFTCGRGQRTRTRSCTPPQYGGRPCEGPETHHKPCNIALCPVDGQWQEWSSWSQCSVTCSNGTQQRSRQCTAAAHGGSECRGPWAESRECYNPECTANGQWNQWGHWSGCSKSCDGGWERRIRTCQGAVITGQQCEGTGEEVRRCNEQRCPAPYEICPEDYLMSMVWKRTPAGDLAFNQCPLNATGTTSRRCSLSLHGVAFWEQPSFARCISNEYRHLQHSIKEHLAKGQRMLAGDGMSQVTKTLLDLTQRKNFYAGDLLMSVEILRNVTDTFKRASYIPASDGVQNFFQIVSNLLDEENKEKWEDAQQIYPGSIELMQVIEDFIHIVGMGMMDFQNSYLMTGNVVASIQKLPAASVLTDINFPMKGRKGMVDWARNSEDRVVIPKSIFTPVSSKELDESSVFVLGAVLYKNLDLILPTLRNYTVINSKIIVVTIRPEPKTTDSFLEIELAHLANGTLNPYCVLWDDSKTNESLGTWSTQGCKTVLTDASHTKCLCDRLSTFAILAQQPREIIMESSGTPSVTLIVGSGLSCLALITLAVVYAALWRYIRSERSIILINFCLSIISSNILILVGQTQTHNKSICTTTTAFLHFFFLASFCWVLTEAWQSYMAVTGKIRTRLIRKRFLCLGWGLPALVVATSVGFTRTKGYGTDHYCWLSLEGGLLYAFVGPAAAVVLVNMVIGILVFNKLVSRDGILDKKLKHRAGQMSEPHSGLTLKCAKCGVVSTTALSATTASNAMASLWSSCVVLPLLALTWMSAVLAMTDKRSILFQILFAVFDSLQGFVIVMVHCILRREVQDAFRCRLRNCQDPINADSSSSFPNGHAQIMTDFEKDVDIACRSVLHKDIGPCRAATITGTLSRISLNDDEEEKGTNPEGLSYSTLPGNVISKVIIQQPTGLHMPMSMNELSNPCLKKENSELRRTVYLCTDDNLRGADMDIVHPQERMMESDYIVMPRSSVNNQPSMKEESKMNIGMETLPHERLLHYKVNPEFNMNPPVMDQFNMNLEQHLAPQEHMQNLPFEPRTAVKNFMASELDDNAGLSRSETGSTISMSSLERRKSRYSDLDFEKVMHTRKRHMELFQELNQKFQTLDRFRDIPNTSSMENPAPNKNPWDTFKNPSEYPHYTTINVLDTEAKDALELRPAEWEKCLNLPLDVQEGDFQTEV

[2] = biological target: T1, Full length human Flag-BAI3-mVenus (human); assay: proximity ligation; C2C12 transfected with tracer amounts of Flag-BAI3, differentiated 24 h, fixed; anti-Flag (M2) and anti-Stabilin-2 antibodies, Duolink PLA

binding [1] | binding [2] | Substance
binds | – | full length V5-Stabilin-2 (from UniProt Q8WWQ8 20-2551) (receptor)
– | binds | endogenous Stabilin-2 (from UniProt Q8R4U0 29-2559) (receptor)
